From patent US11905338B2, “Peptides for use as cell-penetrating peptides” (CENTRE NATIONAL DE LA RECHERCHE SCIENTIFIQUE, priority 2018, dated 2024)
Where no end group is shown, it is not given here.

System: plasmid pGL3
Assay: Agarose gel shift assay of CPP:plasmid complexes
Format: binding
Settings: agarose gel 0.5%
Excerpt: The CPP1 and CPP2 peptides formed complexes when they were associated with oligonucleotides such as a plasmid (FIG. 3). The formation of the complexes was visualized using an agarose gel (0.5%) as described above for the complexation of the CPP with a siRNA. At a charge ratio (CR) corresponding to the charge neutrality (CR=1) between the CPP (positive charge) and the plasmid (negative charge), the plasmid was complexed by the CPP. The bulky CPP:plasmid complex was then no longer able to migrate into the agarose gel.
The intensity of the plasmid band alone was normalized to 100%. By successively increasing the CPP:plasmid charge ratio, the complexation of the pGL3 plasmid (6.56 kbp) was obtained, proportionally reducing its migration in the agarose gel (0.5%).

Substance: LLWRLWRLLWRLWRLL-NH2 [CPP1, LLWRLWRLLWRLWRLL]
- Charge ratio (CR) at which the plasmid was complexed: 1

Substance: LLRLLRWWWRLLRLL-NH2 [CPP2, LLRLLRWWWRLLRLL]
- Charge ratio (CR) at which the plasmid was complexed: 1
